In patent publication US20150147316A1 one finds binding data, which are given here for 1 molecule.

Amino acid sequences for entries named in this document (tags omitted). A change or cut given only in a name is not applied to a line headed by its entry.
UniProt P20138: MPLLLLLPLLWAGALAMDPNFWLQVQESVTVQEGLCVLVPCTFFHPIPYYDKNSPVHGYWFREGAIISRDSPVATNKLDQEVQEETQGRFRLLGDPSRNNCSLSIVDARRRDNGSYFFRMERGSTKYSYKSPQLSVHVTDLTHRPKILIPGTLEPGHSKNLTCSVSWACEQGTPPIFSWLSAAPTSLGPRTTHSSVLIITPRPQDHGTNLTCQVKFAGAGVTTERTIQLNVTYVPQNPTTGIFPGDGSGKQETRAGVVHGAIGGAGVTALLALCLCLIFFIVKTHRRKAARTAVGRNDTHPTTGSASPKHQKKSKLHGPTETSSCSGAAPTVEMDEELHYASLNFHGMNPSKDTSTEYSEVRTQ

The target in experiment [1] is human CD33 (human) (UniProt P20138). As to the kind of experiment: flow cytometry on cells expressing human CD33. (In general: Flow cytometry measures light scatter and fluorescence of single cells or particles in a stream.)
For experiment [2] the target is unchanged. As to the kind of experiment: EC50 binding determinations.

These are yes or no findings as the source states them, for the method shown. Some results given as binding are weak or reduced against the parent protein; the word gives no strength.

B1: h2H12 antibody (2H12 HILG) (antibody, V domains shown)
VH: QVQLVQSGAEVKKPGASVKVSCKASGYTFTNYDINWVRQAPGQGLEWIGWIYPGDGSTKYNEKFKAKATLTADTSTSTAYMELRSLRSDDTAVYYCASGYEDAMDYWGQGTTVTVSS
VL: DIQMTQSPSSLSASVGDRVTINCKASQDINSYLSWFQQKPGKAPKTLIYRANRLVDGVPSRFSGSGSGQDYTLTISSLQPEDFATYYCLQYDEFPLTFGGGTKVEIK
Consider B1, for which the binding result with human CD33 (human) [1] and with human CD33 (human) [2] was “binds” each time.
